From publication PMC10232262
These are yes or no findings as the source states them, for the method shown. Binding seen in cells or lysates may run through a third protein.

By UniProt entry, the sequences of proteins in these tests, tags left out.
UniProt Q8NER1: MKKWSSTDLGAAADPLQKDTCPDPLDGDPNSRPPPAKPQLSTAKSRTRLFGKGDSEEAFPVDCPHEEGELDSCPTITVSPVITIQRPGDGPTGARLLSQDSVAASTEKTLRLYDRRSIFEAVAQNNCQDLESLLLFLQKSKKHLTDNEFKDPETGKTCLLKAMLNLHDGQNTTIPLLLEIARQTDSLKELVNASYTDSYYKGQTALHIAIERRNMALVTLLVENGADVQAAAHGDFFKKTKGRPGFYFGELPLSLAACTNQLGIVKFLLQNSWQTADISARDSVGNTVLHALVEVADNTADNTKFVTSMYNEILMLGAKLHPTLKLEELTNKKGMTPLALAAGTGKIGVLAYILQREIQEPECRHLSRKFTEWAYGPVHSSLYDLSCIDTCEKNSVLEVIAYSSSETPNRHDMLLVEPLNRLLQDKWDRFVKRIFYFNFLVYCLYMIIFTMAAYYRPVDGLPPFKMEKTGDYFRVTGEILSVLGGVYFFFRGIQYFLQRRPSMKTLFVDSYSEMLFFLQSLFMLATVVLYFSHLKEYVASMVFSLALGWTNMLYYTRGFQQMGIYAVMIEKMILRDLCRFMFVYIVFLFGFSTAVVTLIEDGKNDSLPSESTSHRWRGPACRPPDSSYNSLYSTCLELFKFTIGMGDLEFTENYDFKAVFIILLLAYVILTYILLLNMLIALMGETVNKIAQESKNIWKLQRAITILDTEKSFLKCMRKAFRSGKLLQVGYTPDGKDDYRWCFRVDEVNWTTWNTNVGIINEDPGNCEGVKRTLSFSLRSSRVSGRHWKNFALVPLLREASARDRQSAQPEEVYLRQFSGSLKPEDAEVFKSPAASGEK
UniProt Q7Z2W7: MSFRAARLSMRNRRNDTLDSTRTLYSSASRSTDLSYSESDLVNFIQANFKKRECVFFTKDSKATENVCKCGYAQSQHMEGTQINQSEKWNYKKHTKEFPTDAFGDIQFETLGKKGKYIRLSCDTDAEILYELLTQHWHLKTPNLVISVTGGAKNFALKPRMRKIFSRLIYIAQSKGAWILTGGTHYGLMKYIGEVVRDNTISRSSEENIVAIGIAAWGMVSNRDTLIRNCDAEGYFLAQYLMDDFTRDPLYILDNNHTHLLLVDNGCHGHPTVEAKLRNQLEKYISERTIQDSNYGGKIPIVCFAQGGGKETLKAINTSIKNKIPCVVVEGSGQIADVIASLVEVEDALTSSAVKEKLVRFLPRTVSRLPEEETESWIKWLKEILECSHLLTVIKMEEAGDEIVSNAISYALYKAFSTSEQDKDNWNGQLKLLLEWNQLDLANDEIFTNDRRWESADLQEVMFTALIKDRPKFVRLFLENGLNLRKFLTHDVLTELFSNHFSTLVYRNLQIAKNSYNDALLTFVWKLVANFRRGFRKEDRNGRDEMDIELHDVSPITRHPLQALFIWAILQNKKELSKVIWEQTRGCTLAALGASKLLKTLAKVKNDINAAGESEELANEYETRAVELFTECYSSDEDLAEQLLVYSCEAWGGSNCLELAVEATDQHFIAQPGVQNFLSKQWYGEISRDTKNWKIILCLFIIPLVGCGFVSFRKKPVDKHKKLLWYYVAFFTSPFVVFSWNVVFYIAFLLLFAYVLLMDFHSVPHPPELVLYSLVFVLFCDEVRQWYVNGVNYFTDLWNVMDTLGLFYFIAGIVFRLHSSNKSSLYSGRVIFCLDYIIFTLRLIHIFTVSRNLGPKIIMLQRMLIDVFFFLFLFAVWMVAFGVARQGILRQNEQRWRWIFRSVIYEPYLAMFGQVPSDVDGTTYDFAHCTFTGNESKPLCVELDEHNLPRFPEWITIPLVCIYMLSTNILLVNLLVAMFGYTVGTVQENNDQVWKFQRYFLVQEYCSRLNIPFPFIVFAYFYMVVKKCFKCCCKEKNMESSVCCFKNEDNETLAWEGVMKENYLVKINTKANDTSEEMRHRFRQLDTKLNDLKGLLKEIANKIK
UniProt P46940: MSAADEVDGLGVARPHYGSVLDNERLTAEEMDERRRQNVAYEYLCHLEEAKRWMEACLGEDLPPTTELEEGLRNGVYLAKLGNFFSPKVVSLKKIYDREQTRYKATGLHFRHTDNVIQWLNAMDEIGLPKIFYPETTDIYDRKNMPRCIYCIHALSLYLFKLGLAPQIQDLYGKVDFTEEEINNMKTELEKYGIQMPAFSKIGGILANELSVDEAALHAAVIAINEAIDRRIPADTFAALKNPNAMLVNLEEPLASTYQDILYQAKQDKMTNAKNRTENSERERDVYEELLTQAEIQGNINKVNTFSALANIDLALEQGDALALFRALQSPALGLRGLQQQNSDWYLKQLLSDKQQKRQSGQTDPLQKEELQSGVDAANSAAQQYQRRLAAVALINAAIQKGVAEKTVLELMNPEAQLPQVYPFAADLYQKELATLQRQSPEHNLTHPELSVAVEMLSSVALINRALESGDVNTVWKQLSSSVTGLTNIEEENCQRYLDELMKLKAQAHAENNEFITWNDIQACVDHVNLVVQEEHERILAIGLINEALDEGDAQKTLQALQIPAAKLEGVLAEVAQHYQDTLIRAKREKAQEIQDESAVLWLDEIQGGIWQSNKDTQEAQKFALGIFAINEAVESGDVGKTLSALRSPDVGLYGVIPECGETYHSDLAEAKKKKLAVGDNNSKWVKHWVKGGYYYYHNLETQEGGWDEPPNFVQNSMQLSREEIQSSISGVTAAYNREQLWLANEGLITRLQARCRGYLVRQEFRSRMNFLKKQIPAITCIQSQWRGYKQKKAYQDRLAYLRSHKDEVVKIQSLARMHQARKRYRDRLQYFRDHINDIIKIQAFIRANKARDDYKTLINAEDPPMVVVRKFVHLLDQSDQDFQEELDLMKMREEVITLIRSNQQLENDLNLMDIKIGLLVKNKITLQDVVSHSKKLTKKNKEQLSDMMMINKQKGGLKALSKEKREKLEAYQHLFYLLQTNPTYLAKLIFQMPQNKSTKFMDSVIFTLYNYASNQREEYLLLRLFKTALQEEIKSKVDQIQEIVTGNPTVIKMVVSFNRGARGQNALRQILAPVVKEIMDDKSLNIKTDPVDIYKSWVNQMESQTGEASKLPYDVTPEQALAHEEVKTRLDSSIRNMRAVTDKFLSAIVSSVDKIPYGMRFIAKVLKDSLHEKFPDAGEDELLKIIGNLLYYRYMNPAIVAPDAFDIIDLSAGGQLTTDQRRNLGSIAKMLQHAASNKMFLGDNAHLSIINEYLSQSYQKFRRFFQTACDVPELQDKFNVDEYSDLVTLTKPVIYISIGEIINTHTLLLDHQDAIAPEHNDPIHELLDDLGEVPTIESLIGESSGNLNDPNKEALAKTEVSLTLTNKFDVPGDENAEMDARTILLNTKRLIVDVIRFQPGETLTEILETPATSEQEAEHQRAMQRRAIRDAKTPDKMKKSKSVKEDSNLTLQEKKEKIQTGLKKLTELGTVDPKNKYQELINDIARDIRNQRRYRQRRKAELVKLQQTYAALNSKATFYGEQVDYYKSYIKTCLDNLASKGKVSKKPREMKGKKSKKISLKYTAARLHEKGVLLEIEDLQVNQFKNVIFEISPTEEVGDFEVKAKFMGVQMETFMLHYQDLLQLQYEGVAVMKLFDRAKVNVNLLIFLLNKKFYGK

What was measured:
[1] = target: TRPV1-V5-His (UniProt Q8NER1); assay: co-IP; HEK293 cells transfected with V5-His-tagged TRP channels and IQGAP1; blot stripped and reprobed with anti-V5
[2] = target: TRPM8-V5-His (UniProt Q7Z2W7); assay: as above

binding [1]: no binding
binding [2]: no binding
Substance: Myc-IQGAP1 (pCDNA3-Myc-IQGAP1) (from UniProt P46940 1-1657)
